## Library screening results

Measurements from “University of Dundee, Small-Polar-MMV Screening Library” (2021), ChEMBL document CHEMBL3988442.

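Viability assay of Plasmodium falciparum sporozoites; the read-out is not stated. The concentration is filed as 10 mM, unlikely as a test dose, so the dose is not known. Direction is inferred from retests: higher values go with lower viability. Strong results were mostly tested again. About 34,000 compounds were tested under these conditions; 0.84% (about 280) showed 50% or more at least once.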

The filed quantity is “Percent Effect” (%). How 0% and 100% were set is not recorded. Most values in the screen are low, and negative values occur. This is an unselected part of the compounds tested. Two or more numbers in one place are separate tests of the same structure; such repeats can differ widely.

Result for O=C(c1cc2c(s1)CCC2)N1CCCC(c2cnccn2)C1 (configuration not stated) was -3.809%.
Result for Cc1n[nH]c(C)c1NC(=O)CN1CCCC(CNC(=O)C(C)(C)C)C1 (configuration not stated) was -25.39%.
Result for Cc1nc2cc(C(=O)N(CCC#N)CC3CCCO3)ccc2[nH]1 (configuration not stated) was -18.37%.
Result for Cc1ccc(NC(=O)C2CSCN2C(=O)c2cc[nH]n2)c(C)c1 (configuration not stated) was -2.415%.
Result for COc1ccc(C(C(=O)O)N2CCN(C3CCCC3)CC2)cc1OC (configuration not stated) was 6.746%.
Result for CCN(CC)S(=O)(=O)c1ccc(CNC(=O)c2cc(C)on2)cc1 was -1.221%.
Result for c1csc(-c2noc(CN3CCc4c(ncn4C4CC4)C3)n2)c1 was 59.38% and 60.81%.
Result for COc1ccc(CN(Cc2ccccn2)Cc2cncn2C)cc1.O=C(O)CC(O)(CC(=O)O)C(=O)O was 3.185%.
Result for CCc1nccn1-c1cccc(C2CCCN(C3CCCCC3)C2)n1 (configuration not stated) was -0.5021%.
Result for CCc1nc(C2CCCN(C(=O)CN(C)S(C)(=O)=O)C2)no1 (configuration not stated) was -16.65%.
Result for CCn1c(C(=O)N2CCN(C(=O)NC(C)C)CC2)cc2ccccc21 was -10.63%.
Result for Cc1cccc(CNC2CC(=O)N(Cc3cccc(F)c3)C2)c1 (configuration not stated) was -3.301%.
Result for CC(C)S(=O)(=O)C(C)C(=O)NCc1cccc(N2CCCCC2=O)c1 (configuration not stated) was -3.344%.
Result for Cc1nnc(NC(=O)NC2CCOc3ccccc32)s1 (configuration not stated) was 3.835%.
Result for CN1C(=O)C2(CCN(S(C)(=O)=O)CC2)c2cc(F)ccc21.Cl was -5.537%.
Result for N#CCc1ccc(OCC(=O)N2CCCC(n3cccn3)C2)cc1 (configuration not stated) was 6.466%.
Result for Cc1nc(C)c(CC(=O)Nc2nnc(C)s2)c(=O)[nH]1 was 12.2%.
Result for CN1CCOCC2(CCCN(C(=O)c3ccc(-n4cccc4)cc3)C2)C1.O=C(O)C(F)(F)F (configuration not stated) was -18.67%.
Result for Cc1ccc(CC(=O)N2CCCC(c3ccn[nH]3)C2)cn1 (configuration not stated) was 10.81%.
Result for O=C(NCc1csc(Br)c1)c1cnccn1 was 11.28%.
Result for CCc1n[nH]c(C2CN(Cc3nnc(C4CC4)o3)CCO2)n1 (configuration not stated) was 4.502%.
Result for Cc1cc(C)nc(N2CC=C[C@H]2C(=O)NCc2ccc3c(c2)OCO3)n1 was 0.6394%.
Result for CCn1ccc2ccnc(CC3CN(C(=O)c4ccc(F)cc4)C3)c21 was 6.494%.
Result for CN1CCC(c2nnc3n2CCN(S(=O)(=O)c2ccccc2Cl)C3)CC1 was 6.993%.
Result for Cc1cc(C(=O)N2CC[C@@]3(C[C@@H](NS(C)(=O)=O)CCO3)C2)no1 was 0.4296%.
Result for Cc1cc(C)c(CNC(=O)N2CCCN(C(=O)C(C)C)CC2)c(C)c1 was 23.42%.
Result for CC(C)c1nnc2n1CCN(C(=O)Cc1csc(C(C)(C)C)n1)C2 was 9.664%.
Result for O=C(O)C(F)(F)F.O=C(O)C(F)(F)F.O=C(O)C(F)(F)F.[H][C@@]12CN(Cc3cccnc3)C[C@]1([H])OCCN2c1ccc(C)nn1 was -11.77%.
Result for COc1ccccc1C(=O)N1CC(=O)N(C2CCCCC2)CC(O)C1 (configuration not stated) was -38.42%.
Result for CC(=O)NCC(=O)N1CCC2(CC1)NC(=O)CC2c1cccnc1.O=C(O)C(F)(F)F (configuration not stated) was 10.61%.
Result for Cc1nn(-c2ccccc2)c(C)c1CNC1CCc2ncnn2C1 (configuration not stated) was 8.213%.
Result for CCCC(=O)N(C)Cc1cccc(OC(C)C)c1 was 2.744%.
Result for Cn1ccnc1C1(O)CCCN(Cc2ccncc2)CC1 (configuration not stated) was 7.853%.
Result for Cn1cc(CN(C(=O)c2ccc(O)c(Cl)c2)C2CC2)cn1 was -1.432%.
Result for Cc1ccc(CCCC(=O)N2CCC(CS(N)(=O)=O)CC2)s1 was -5.722%.
Result for COc1ccnc(NC(=O)CSCc2cccnc2)c1 was 22.75% and 6.511%.
Result for N#Cc1ncn(CCC(=O)Nc2ccc(Cl)cc2F)n1 was -0.2806%.
Result for Cc1nc(-c2ccsc2)ccc1C(=O)O was -1.792%.
Result for CC(C)(C)C(=O)NCCn1ccc(-c2ccccn2)n1 was 7.61%.
Result for Cl.OC(CNCc1ccccc1C(F)(F)F)c1ccccc1 (configuration not stated) was -20.02%.
Result for CN(C)CCN1CCCC12CCN(C(=O)c1cccnc1)CC2.O=C(O)C(F)(F)F.O=C(O)C(F)(F)F was 16.16% and 37.27% and -3.666%.
Result for [H][C@@]12COC[C@]1(COCC1CC1)CN(C(=O)C1=CCCC1)C2 was -1.54%.
Result for O=C(N[C@@H]1CCC[C@@H](N2CCCC2)[C@@H]1O)c1cc2ccccc2[nH]1 was -3.527%.
Result for Cc1nc(N2CCCC2)nc2c1CCN(C(=O)N1CCCC1)CC2 was 10.29%.
Result for CCS(=O)(=O)N1Cc2ncn(CC3CC3)c2C(COCC2CC2)C1.O=C(O)C(F)(F)F (configuration not stated) was 10.61%.
Result for COCc1nn(Cc2ccc(Br)s2)c(=O)o1 was -7.162%.
Result for c1ccc(-c2nc(CN3CCn4c(nnc4C4CC4)C3)cs2)cc1 was 10.54%.
Result for CC(=O)N1CCCC(c2nc(N(C)C)ncc2-c2ccccc2)C1 (configuration not stated) was -0.09653%.
Result for [H][C@@]12OCCN(C(=O)C3CCOCC3)[C@@]1([H])CC[C@H]2OCC was -11.5%.
Result for O=C1COc2cc(C(=O)NS(=O)(=O)c3ccc(F)cc3)ccc2N1 was 1.526%.
Result for Cc1noc(C)c1CN1Cc2cnn(C)c2C(COCC2CC2)C1.O=C(O)C(F)(F)F.O=C(O)C(F)(F)F (configuration not stated) was 4.377%.
Result for O=C(COC1CCCC1)N1CCCN(c2ncccn2)CC1 was 2.286%.

The first 3 entries again:

compound	percent effect
O=C(c1cc2c(s1)CCC2)N1CCCC(c2cnccn2)C1 (configuration not stated)	-3.809
Cc1n[nH]c(C)c1NC(=O)CN1CCCC(CNC(=O)C(C)(C)C)C1 (configuration not stated)	-25.39
Cc1nc2cc(C(=O)N(CCC#N)CC3CCCO3)ccc2[nH]1 (configuration not stated)	-18.37